Source: patent US20250276016A1
Results are given in words; binding and its absence hold for the method and conditions named. Some entries that bind do so weakly or less than the wild type.

Amino acid sequences for entries named in this document (tags omitted). A change or cut given only in a name is not applied to a line headed by its entry. Residues count along the entry.
UniProt P15941, residues 1110-1255: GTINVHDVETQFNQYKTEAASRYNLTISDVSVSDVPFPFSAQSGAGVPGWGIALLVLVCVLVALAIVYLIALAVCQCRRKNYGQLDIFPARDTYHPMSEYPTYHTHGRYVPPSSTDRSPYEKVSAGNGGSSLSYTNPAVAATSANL

Molecular target: MUC1* on T47D breast cancer cells (UniProt P15941)
Assay: co-culture of CAR T cells with T47D cells; binding told in words, not measured

binding | Binder
binds | MNC2-28-3z (CAR comprising a huMNC2 scFv, a CD28 co-stimulatory domain and a CD3ζ signaling domain) (protein) EVQLVESGGGLVKPGGSLRLSCAASGFTFSGYAMSWVRQAPGKGLEWVSTISSGGTYIYYPDSVKGRFTISRDNAKNSLYLQMNSLRAEDTAVYYCARLGGDNYYEYFDVWGKGTTVTVSSGGGGSGGGGSGGGGSDIVLTQSPASLAVSPGQRATITCRASKSVSTSGYSYMHWYQQKPGQPPKLLIYLASNLESGVPARFSGSGSGTDFTLTINPVEANDTANYYCQHSRELPFTFGGGTKVEIKRTKHLCPSPLFPGPSKPFWVLVVVGGVLACYSLLVTVAFIIFWVRSKRSRLLHSDYMNMTPRRPGPTRKHYQPYAPPRDFAAYRSRVKFSRSADAPAYKQGQNQLYNELNLGRREEYDVLDKRRGRDPEMGGKPRRKNPQEGLYNELQKDKMAEAYSEIGMKGERRRGKGHDGLYQGLSTATKDTYDALHMQALPPR
binds | MNC2-28-1XX (CAR comprising a huMNC2 scFv, a CD28 co-stimulatory domain and a CD3ζ with Tyrosines in ITAM2 and ITAM3 mutated to Phenylalanine) (protein) EVQLVESGGGLVKPGGSLRLSCAASGFTFSGYAMSWVRQAPGKGLEWVSTISSGGTYIYYPDSVKGRFTISRDNAKNSLYLQMNSLRAEDTAVYYCARLGGDNYYEYFDVWGKGTTVTVSSGGGGSGGGGSGGGGSDIVLTQSPASLAVSPGQRATITCRASKSVSTSGYSYMHWYQQKPGQPPKLLIYLASNLESGVPARFSGSGSGTDFTLTINPVEANDTANYYCQHSRELPFTFGGGTKVEIKRTKHLCPSPLFPGPSKPFWVLVVVGGVLACYSLLVTVAFIIFWVRSKRSRLLHSDYMNMTPRRPGPTRKHYQPYAPPRDFAAYRSRVKFSRSADAPAYKQGQNQLYNELNLGRREEYDVLDKRRGRDPEMGGKPRRKNPQEGLFNELQKDKMAEAFSEIGMKGERRRGKGHDGLFQGLSTATKDTFDALHMQALPPR
